Like-named read-outs stand apart in the source and are kept apart here.
Details: rat, in vivo
Description: Twelve male Wistar Han rats were divided into 4 groups, n=3 per group.
Dose solutions were prepared freshly on the day of study prior to dosing.
The animals were weighed immediately prior to dosing and the dose volume was calculated individually based the obtained body weight and the nominal dose volume. […] The test articles were administered either orally by gavage, or intraperitoneally by injection. The nominal dose volume was 10 mL/kg for both compounds and both routes.
Cage side observation was performed before and after dosing as well as at each scheduled sample collection. The observation included appearance, posture, behavior, morbidity and mortality. Abnormal findings, if any, were recorded in the study notebook and communicated with study director, veterinarian, and Supernus if necessary.
Approximately 100 μL blood was collected at each scheduled time point from jugular veins. The actual sample collection time was within 1 min. of the nominal time for collections prior to or at 1 hour, and within 5% of the nominal time for collections post 1 hour.
The blood samples were placed in pre-labeled micro-centrifuge tubes containing K2EDTA as anticoagulant and kept on ice, and then were processed to plasma within 30 minutes of collection by centrifugation at 4° C., 3000 g for 5 minutes, and then stored at −70±10° C. until analysis by LC-MS/MS.
Plasma concentrations below the LLOQ prior to Tmax were set to zero, and those after Tmax were excluded from PK calculation. The nominal dose and the nominal sample collection time were used for the calculation. The values of plasma concentrations and PK parameters are reported to three significant figures. The average values of each treatment group are presented as mean±SD.

| SMILES | AUC0-last of Compound B (ip) | Cmax of Compound B (ip) | MRT0-last of Compound B (ip) | Tmax of Compound B (ip) | AUC0-last of Compound B (po) | Cmax of Compound B (po) | MRT0-last of Compound B (po) | Tmax of Compound B (po) |
| --- | --- | --- | --- | --- | --- | --- | --- | --- |
| COCCOC1(c2ccc(Cl)cc2)c2ccccc2C2=NCCN21 (centres unmarked) [Compound I-4] | 196 30.1 ng·h/mL | 11.3 ± 0.709 ng/mL | 11.9 ± 0.993 h | 6.67 ± 2.31 h | 264 ± 24.1 ng·h/mL | 17.9 ± 4.7 ng/mL | 11.9 ± 0.682 h | 8.00 ± 0 h |
| Clc1ccc(C2(OCC3OCCO3)c3ccccc3C3=NCCN32)cc1 (centres unmarked) [Compound I-19] | 368 ± 243 ng·h/mL | 28.4 ± 9.15 ng/mL | 8.79 ± 3.82 h | – | 346 ± 29.7 ng·h/mL | 24.6 ± 7.67 ng/mL | 11.9 ± 1.81 h | – |

Reference: patent US20250108038A1 (priority 2023, published 2025)
